No constants are given. Whether binding was seen depends on the method and setting. Binding seen in cells or lysates may run through a third protein. Some results given as binding are weak or reduced against the parent protein; the word gives no strength. For part of these data: Where a sequence is shown, tags or fusion partners need not be part of it.
Experiments:
[1] = molecular target: T1, HA-tagged WT PEAK3 (HEK293 cells) (UniProt Q6ZS72); test: co-IP
T1 sequence: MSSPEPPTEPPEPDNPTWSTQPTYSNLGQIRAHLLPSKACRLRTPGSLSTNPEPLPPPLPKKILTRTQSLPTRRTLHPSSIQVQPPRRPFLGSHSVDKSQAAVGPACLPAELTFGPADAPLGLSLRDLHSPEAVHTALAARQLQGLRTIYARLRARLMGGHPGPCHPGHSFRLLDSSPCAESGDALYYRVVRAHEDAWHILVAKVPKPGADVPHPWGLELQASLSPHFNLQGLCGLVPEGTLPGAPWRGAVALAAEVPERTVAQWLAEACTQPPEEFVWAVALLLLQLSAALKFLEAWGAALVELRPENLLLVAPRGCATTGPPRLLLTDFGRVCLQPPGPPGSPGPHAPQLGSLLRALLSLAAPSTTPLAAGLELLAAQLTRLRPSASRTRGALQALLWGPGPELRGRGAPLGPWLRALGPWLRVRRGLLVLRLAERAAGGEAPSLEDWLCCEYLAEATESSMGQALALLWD

Amino acid sequences for entries named in this document (tags omitted). A change or cut given only in a name is not applied to a line headed by its entry.
UniProt Q14289, whole entry: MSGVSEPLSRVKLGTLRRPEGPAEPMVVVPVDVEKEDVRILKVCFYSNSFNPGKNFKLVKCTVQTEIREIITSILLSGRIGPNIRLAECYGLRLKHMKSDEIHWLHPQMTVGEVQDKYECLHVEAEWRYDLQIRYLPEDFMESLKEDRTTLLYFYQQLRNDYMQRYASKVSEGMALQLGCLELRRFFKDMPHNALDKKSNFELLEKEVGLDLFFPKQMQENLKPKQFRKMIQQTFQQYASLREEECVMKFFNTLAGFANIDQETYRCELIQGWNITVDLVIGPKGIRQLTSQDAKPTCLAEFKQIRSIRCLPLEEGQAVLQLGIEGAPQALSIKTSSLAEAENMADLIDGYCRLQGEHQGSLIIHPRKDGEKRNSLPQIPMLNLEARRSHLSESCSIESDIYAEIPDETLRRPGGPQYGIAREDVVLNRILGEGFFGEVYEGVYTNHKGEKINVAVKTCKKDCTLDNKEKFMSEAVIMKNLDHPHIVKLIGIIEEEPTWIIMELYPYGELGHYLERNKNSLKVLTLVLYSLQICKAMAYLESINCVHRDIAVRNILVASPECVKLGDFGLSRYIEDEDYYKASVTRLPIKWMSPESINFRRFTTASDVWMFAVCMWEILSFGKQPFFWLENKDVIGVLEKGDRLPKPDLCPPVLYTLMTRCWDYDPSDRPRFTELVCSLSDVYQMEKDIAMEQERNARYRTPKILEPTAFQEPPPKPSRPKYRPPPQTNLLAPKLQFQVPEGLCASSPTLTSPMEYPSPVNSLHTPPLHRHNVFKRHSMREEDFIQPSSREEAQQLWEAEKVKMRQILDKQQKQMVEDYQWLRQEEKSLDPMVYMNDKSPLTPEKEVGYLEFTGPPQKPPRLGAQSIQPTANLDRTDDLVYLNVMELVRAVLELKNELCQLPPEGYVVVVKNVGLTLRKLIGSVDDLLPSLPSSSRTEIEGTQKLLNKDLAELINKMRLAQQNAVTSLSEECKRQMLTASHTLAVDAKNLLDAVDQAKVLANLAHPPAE

[2] = molecular target: HA-tagged PEAK3 SH3(2) mutant (DKO MCF-10A cells) (UniProt Q6ZS72); test: co-IP

## EGFR (HEK293 cells) (from UniProt P00533 25-1210) (receptor)
[1]
  binding: binds

## EGFR (MCF-10A cells) (from UniProt P00533 25-1210) (receptor)
[2]
  binding: binds

## PYK2 (HEK293 cells) (from UniProt Q14289 1-1009)
[1]
  binding: binds

— doi:10.1101/2021.02.17.431740
